From doi:10.1101/2022.01.25.477727

What was measured:
[1] = target: EMC1-Flag (Flag-tagged Drosophila EMC1, from UAS-EMC1-FLAG) (Drosophila melanogaster); experiment: co-IP
[2] = target: EMC1-Flag (Flag-tagged Drosophila EMC1, from UAS-EMC1-FLAG) (Drosophila melanogaster); experiment: co-IP; remark: listed apart in the source

- binding [1]: binds
- binding [2]: binds
B1: Hpo-GFP (GFP-tagged Drosophila Hippo, from UAS-Hpo-GFP) (enzyme, UniProt Q8T0S6 1-669)
chain: MSEPEVTSVVDMKSPNISSSCSFFKLKKLSEESLLQPPEKVFDIMYKLGEGSYGSVYKAVHKESSSIVAIKLVPVESDLHEIIKEISIMQQCDSPYVVRYYGSYFKQYDLWICMEYCGAGSVSDIMRLRKKTLTEDEIATILSDTLQGLVYLHLRRKIHRDIKAANILLNTEGYAKLADFGVAGQLTDTMAKRNTVIGTPFWMAPEVIEEIGYDCVADIWSLGITALEMAEGKPPYGEIHPMRAIFMIPQKPPPSFREPDRWSTEFIDFVSKCLVKEPDDRATATELLEHEFIRNAKHRSILKPMLEETCAIREQQRANRSFGGVLAASQAKSLATQENGMQQHITDNAFMEDPGTLVPEKFGEYQQSSASDATMIAHAEQGVDEGTLGPGGLRNLSKAAAPAAASSAASPLDMPAVDSGTMVELESNLGTMVINSDSDDSTTAKNNDDQKPRNRYRPQFLEHFDRKNAGDGRGDEKPIATEYSPAAAEQQQQQQQQQQQQQQDEQHLASGANDLNNWEHNMEMQFQQISAINQYGLQQHQQQQQVLMAYPLMNEQLIALNNQPNLLLSNAAPMGQQGIPAAAPAQPPPAYQNQHMHTQSHAYVEGEFEFLKFLTFDDLNQRLCNIDHEMELEIEQLNKKYNAKRQPIVDAMNAKRKRQQNINNNLIKI

Like-named read-outs stand apart in the source and are kept apart here. No constants are given. Whether binding was seen depends on the method and setting. Binding seen in cells or lysates may run through a third protein. Binding can be weak; no strength is given. Tags and fused reporters may be left off the sequences shown.
